From PubChem BioAssay AID624246 (National Center for Advancing Translational Sciences (NCATS), 2012)
The whole screen tested about 370,000 compounds, of which about 100 (0.027%) were called active. The shares of active, inactive and inconclusive entries below differ from those in the screen. Calls come from the whole dose curve; as a rule, active = well fitted inhibition curve with a large enough effect in the polarisation, with a control signal flat; inconclusive = small, poorly fitted or top-dose-only effect, or effect the other way, or a change in a side signal; inactive = no such curve, though single readings can be large or run the other way; the % refers to the polarisation. Potencies beside an inconclusive call are fits to weak or partial responses and may not hold up. “Side channel” marks fits to a control or component signal instead of the main read-out.

Amino acid sequences for entries named in this document (tags omitted). A change or cut given only in a name is not applied to a line headed by its entry.
UniProt P11308: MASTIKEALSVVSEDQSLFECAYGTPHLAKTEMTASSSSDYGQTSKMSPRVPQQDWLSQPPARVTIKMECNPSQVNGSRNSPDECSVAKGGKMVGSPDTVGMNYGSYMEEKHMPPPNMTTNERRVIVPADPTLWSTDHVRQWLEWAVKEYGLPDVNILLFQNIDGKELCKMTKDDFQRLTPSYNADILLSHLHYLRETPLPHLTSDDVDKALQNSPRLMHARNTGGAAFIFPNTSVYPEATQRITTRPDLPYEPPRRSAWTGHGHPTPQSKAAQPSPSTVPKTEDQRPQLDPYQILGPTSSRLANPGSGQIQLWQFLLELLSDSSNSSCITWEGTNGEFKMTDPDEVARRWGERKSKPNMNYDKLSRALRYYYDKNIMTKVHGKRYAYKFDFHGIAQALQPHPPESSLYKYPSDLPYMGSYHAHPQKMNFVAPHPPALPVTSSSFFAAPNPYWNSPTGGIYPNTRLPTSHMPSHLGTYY

Biological target: Transcriptional regulator ERG (Homo sapiens) (UniProt P11308)
Test: qHTS for Small Molecule Inhibitors of the ERG Ets/DNA interaction; for FP activity, negative = inhibition: % of control where 0% means no effect
Conditions: fluorescence polarization, His-ERG Ets domain / labelled DNA; FP activity, negative = inhibition: at 76.9 µM (top of the series)
Procedure, shortened: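 His-tagged ERG Ets domain (1 uM in the protein solution; 300mM KCl, 50mM Tris-HCl, 1mM EDTA, 1mM DTT, pH 7.5) received compound, then a probe mix of 5 nM fluorescein-DNA and 100nM Texas-615-DNA. Fluorescence polarization was read for both dyes.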
Potency is the fitted concentration of half-maximal effect.

SMILES	Potency	FP activity, negative = inhibition
S=C(NCCc1ccccc1)Nc1ccc(Cl)cc1Cl	inconclusive: 50.1 µM [inhibitor, partial curve, poor fit]	
O=[N+]([O-])c1ccc(O)c(-c2ccnc3cc(-c4ccccc4)nn23)c1	inconclusive: 5.62 µM [quencher, side channel, partial curve, poor fit]	
Cc1ccc(CS(=O)(=O)c2ncc(Cl)c(C(=O)Nc3ccc(OC(F)F)cc3)n2)cc1		inactive: -1.61%
N=C1CCC(=N)c2c1c(O)c1ccccc1c2O	inconclusive: 28.2 µM [inhibitor, partial curve, poor fit]	
O=C(CSc1nnnn1-c1ccccc1)Nc1nc(-c2ccccc2)ns1	inconclusive: 50.1 µM [inhibitor, partial curve, poor fit]	
CCOCCCNC(=O)C(NC(=O)Cc1cccs1)c1ccc(C)cc1 (stereo not given)		inactive: 11.3%
COc1ccccc1N1CCN(S(=O)(=O)CCNC(=O)c2cccc(F)c2)CC1	inconclusive: 12.6 µM [inhibitor, partial curve, poor fit]	
O=C(Cc1ccccc1)Nc1cccc(N2C(=O)C=CC2=O)c1		inactive: -7.01%
CC(NC(=O)c1cn(C)c2ccc(S(=O)(=O)N3CCCC3)cc2c1=O)c1ccccc1 (stereo not given)	inconclusive: 50.1 µM [inhibitor, single point]	
CCc1ccc(Nc2ncnc3nc[nH]c23)cc1	inconclusive: 6.31 µM [inhibitor, single point]	
COc1cc(C(=O)Nc2ccc(Cl)c([N+](=O)[O-])c2)cc(OC)c1OC	inconclusive: 7.08 µM [inhibitor, single point]	
CCOC(=O)c1cc(-c2ccc(C)cc2)n(CC(=O)Nc2ccc(OC)cc2OC)c1C		inactive: 0.778%
Cc1cc(C(=O)NCC(=O)OCC(=O)N(C2CCCCC2)C2CCCCC2)ccc1[N+](=O)[O-]	inconclusive: 15.8 µM [quencher, side channel, partial curve, poor fit]	
COc1ccc(-c2[nH]ncc2CN2CCC(OCc3cccnc3)CC2)c(F)c1		inactive: 7.53%
CC(=O)c1cc(O)c2ccccc2c1O		inactive: 0.403%
CSc1cccc(NC(=O)CN(C)S(=O)(=O)c2ccc(F)cc2)c1	inconclusive: 31.6 µM [quencher, side channel, partial curve, poor fit]	
CCc1ccc(C2c3c(-c4ccccc4O)n[nH]c3C(=O)N2Cc2ccncc2)cc1 (stereo not given)		inactive: 2.53%
COc1ccc(NC(=S)NCc2ccc3c(c2)cc(C)n3C)cc1	inconclusive: 35.5 µM [inhibitor, single point]	
CN(C)c1ccc(/C=C/c2ccc3ccccc3[n+]2C)cc1	inconclusive: 17.8 µM [fluorescent, side channel, partial curve, poor fit]	
O=C(Nc1ccc2nc(-c3ccc4nc[nH]c4c3)[nH]c2c1)c1cccs1	inconclusive: 44.7 µM [quencher, side channel, single point]	

Some of the entries so far, in CSV form.
SMILES,Potency,"FP activity, negative = inhibition"
Cc1ccc(CS(=O)(=O)c2ncc(Cl)c(C(=O)Nc3ccc(OC(F)F)cc3)n2)cc1,,inactive: -1.61%
COc1ccccc1N1CCN(S(=O)(=O)CCNC(=O)c2cccc(F)c2)CC1,"inconclusive: 12.6 µM [inhibitor, partial curve, poor fit]",

Remaining list, next part.

SMILES	Potency	FP activity, negative = inhibition
O=C(COC(=O)c1cc(-c2cccc3ccccc23)nc2ccccc12)NC1CCS(=O)(=O)C1 (stereo not given)	inconclusive: 100 µM [inhibitor, single point]	
CN1CCN(C(CNC(=O)C(=O)Nc2ccccc2)c2ccc3c(c2)OCO3)CC1 (stereo not given)		inactive: -0.569%
Cc1ccc(CC(NC(=O)C2CCCCC2)C(=O)O)cc1 (stereo not given)		inactive: -3%
Fc1ccc(NC(=S)N/N=C/c2ccc(F)c(F)c2)c(F)c1		inactive: -2.94%
Cc1cc2ccccc2n1CCNC(=O)C(C)Oc1ccccc1 (stereo not given)	inconclusive: 35.5 µM [inhibitor, partial curve, poor fit]	
CC1(C)CC(=O)/C(=C\c2cccc([N+](=O)[O-])c2)C(C)(C)N1	inconclusive: 50.1 µM [inhibitor, partial curve, poor fit]	
Cc1cnc(C(=O)Nc2ccccc2-c2ccc(C)o2)cn1	inconclusive: 50.1 µM [inhibitor, partial curve, poor fit]	
COc1ccc(C(=O)CC(=O)Nc2ccc([N+](=O)[O-])cc2)cc1	inconclusive: 50.1 µM [inhibitor, single point]	
CCn1c(C)c(C)c2cc(C(=O)NCCc3cc(OC)c(OC)c(OC)c3)ccc21	inconclusive: 6.31 µM [quencher, side channel, partial curve, poor fit]	
COc1ccc(-c2noc(CSc3nc4ccccc4c(=O)n3-c3ccccc3)n2)cc1	inconclusive: 11.2 µM [inhibitor, partial curve, poor fit]	
CN(CC(=O)Nc1cccc2c1CCCC2)S(=O)(=O)c1ccc(Br)cc1		inactive: -4.3%
O=C(NNC(=O)c1ccc(S(=O)(=O)N2CCCCC2)cc1)c1ccc(F)cc1	inconclusive: 8.91 µM [inhibitor, partial curve, poor fit]	
COC(=O)C1=C(C)NC(C)=C(C(=O)OC)C1c1ccc(-c2cccc(Cl)c2Cl)o1	inconclusive: 3.55 µM [inhibitor, partial curve, poor fit]	
CCOC(=O)c1ccc(N2C(=O)c3[nH]nc(-c4ccccc4)c3C2c2cccs2)cc1 (stereo not given)	inconclusive: 50.1 µM [quencher, side channel, single point]	
Cn1nc(C(F)(F)F)c(C#N)c1N1CCN(c2ccccn2)CC1	inconclusive: 0.794 µM [inhibitor, full curve, poor fit]	
CCOc1ccc(CN2CCNC(=O)C2CC(=O)NCCCn2ccnc2)cc1 (stereo not given)	inconclusive: 50.1 µM [inhibitor, single point]	
Cc1ccc(OCCN(C)C(=O)c2cc(COc3ccc(F)cc3F)on2)cc1	inconclusive: 0.708 µM [inhibitor, full curve, poor fit]	
CC(=O)NC(c1ccccc1)c1c(O)ccc2ccccc12 (stereo not given)		inactive: -10.2%
O=C(CSc1ncn[nH]1)Nc1ccc2c(c1)CCC2	inconclusive: 8.91 µM [quencher, side channel, partial curve, poor fit]	
COC(=O)c1cc(NC(=O)c2c(Cl)cnn2C)cc(C(=O)OC)c1	inconclusive: 5.62 µM [inhibitor, partial curve, poor fit]	
